# Measurements taken from US10251931B2, “Cyclic peptides and methods using same” (priority 2014, dated 2019).
# “Also recorded” adds a separate entry of the source. For part of these data: Not every detail of the peptide structures is certain; ends, links or a residue may be inferred. For part of these data: For at least one compound, name, drawing or mass did not settle the structure. Starred links: 1 amine or outer side, 2 acyl side, 3 side chain; linkers in the order of their positions; H or OH if unused. Positions of bridges follow the written chain, without caps; N, C: chain ends. Non-standard residues stand in square brackets, D forms with d. Residues, ends and D or L forms follow the SMILES beside them. X1 = O=C([C@@H]1CC(n2cc([C]34[CH]5[CH]6[CH]7[CH]3[Fe]6754389%10[CH]4[CH]3[CH]8[CH]9[CH]4%10)nn2)CN1[*:1])[*:2]; Pro(cis-4-Trz(4-CH2CH2Ph)) = O=C(O)[C@@H]1C[C@H](n2cc(CCc3ccccc3)nn2)CN1
# Legend:
# HIV-1 gp120 = target: T1, HIV-1 gp120 (Human immunodeficiency virus type 1 group M subtype B, UniProt P35961); settings: concentration range used; read-out: IC50 in SPR competition binding assays
# T1 construct: Expression and Purification of Wild-Type gp120YU-2; made in house; host or cells: HEK 293F
# Description: SPR competition binding assays were used to assess the structural elements required for cyclic hexapeptide binding to gp120. […] In an attempt to restore the lost contact, the length of the two linkers was changed (Linker 1 and Linker 2 in FIG. 12).
# SPR experiments were performed on a Biacore 3000 optical biosensor (GE Healthcare). All experiments were carried out at 25° C. using standard PBS buffer pH=7.4 with 0.005% surfactant Tween. A CM5 sensor chip was derivatized by standard 1-ethyl-3-(3-dimethylaminopropyl) carbodiimide (EDC)/N-hydroxysuccinimide (NHS) chemistry, and coupling was done through ligand amine groups. Antibody 2B6R (α-human IL5R) was immobilized for negative control surfaces. For competition experiments, soluble four domain CD4 and 17b antibody were immobilized on the surface through standard EDC/NHS chemistry. For kinetic analyses, typically 2000-3000 RUs of protein reagents were immobilized on SPR chips, and analytes were passed over the surface at 50-100 μL/min. Surface regeneration was achieved by a 5 μL injection of 10 mM HCl solution at 100 μL/min. […]
# The cyclic peptides of the invention were tested against HIV-1 gp120 by SPR competition assays as described elsewhere herein. […] The competition assay evaluated the ability of each peptide to inhibit the binding between gp120 and both soluble CD4 and 17b antibody, a surrogate for co-receptor.
# HIV-1 Bal.01 pseudovirus = assay: Inhibition of HIV-1 infection against Bal.01 (HOS.T4.R5 cells, luciferase); format: cell-based
# HIV-1 JR-FL pseudovirus = assay: Inhibition of HIV-1 infection against JR-FL (HOS.T4.R5 cells, luciferase); format: cell-based
smiles,measurement,setting,value
CC[C@H](C)[C@@H]1NC(=O)[C@H](CC(N)=O)NC(=O)[C@@H](N)CCC(=O)NCCCC[C@@H](C(N)=O)NC(=O)[C@H](Cc2c[nH]c3ccccc23)NC(=O)[C@@H]2C[C@H](n3cc(CCc4ccccc4)nn3)CN2C1=O [AAR028] (H-ENI[Pro(cis-4-Trz(4-CH2CH2Ph))]WK-NH2; lactam 1-6 (inferred); N-terminus and C-terminus assumed),IC50,HIV-1 gp120,> 40 µM
"CC[C@H](C)[C@@H]1NC(=O)[C@H](CC(N)=O)NC(=O)[C@@H](N)CC(=O)NCCCC[C@@H](C(N)=O)NC(=O)[C@H](Cc2c[nH]c3ccccc23)NC(=O)[C@@H]2CC(n3cc([C]45[CH]6[CH]7[CH]8[CH]4[Fe]786549%10%11[CH]5[CH]4[CH]9[CH]%10[CH]5%11)nn3)CN2C1=O (stereo partly drawn) [AAR029b, (3S,6S,14S,17S,20S,24S,25aS)-3-((1H-indol-3-yl)methyl)-14-amino-17-(2-amino-2-oxoethyl)-20-((S)-sec-butyl)-24-(4-ferrocenyl-1H-1,2,3-triazol-1-yl)-1,4,12,15,18,21-hexaoxotetracosahydro-1H-pyrrolo[2,1-f][1,4,7,10,13,18]hexaazacyclotricosine-6-carboxamide] (H-DNI[X1]WK-NH2; lactam 1-6)","Infection inhibition against Bal.01, in words",HIV-1 Bal.01 pseudovirus,submicromolar; also recorded: inhibiting activity
same,"Infection inhibition against JR-FL, in words",HIV-1 JR-FL pseudovirus,submicromolar; also recorded: inhibiting activity
